Paper doi:10.1101/2020.03.20.000091
No constants are given. Whether binding was seen depends on the method and setting. For part of these data: Binding seen in cells or lysates may run through a third protein. Some entries that bind do so weakly or less than the wild type. Where a sequence is shown, tags or fusion partners need not be part of it.

T1: YFP-BBS4 (human) (UniProt Q96RK4)
T1 sequence: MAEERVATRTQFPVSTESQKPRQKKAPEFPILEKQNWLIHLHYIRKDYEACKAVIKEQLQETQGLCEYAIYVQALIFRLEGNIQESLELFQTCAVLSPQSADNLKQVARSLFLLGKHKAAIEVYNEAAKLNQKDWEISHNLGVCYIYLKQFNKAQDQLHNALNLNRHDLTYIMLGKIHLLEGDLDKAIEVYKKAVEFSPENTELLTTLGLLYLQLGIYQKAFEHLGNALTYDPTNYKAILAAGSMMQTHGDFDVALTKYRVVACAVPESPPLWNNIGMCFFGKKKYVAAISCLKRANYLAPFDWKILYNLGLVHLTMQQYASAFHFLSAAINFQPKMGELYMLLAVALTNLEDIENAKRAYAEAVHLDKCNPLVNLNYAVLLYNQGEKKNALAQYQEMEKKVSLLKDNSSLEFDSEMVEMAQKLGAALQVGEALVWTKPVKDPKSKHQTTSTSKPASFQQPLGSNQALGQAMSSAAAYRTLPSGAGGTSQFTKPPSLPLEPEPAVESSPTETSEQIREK


molecular target: T1, YFP-BBS4 (human); test: fluorescence correlation spectroscopy

Row | binding | Binder
1 | binds | BBS9 (protein, UniProt Q3SYG4 1-887) MSLFKARDWWSTILGDKEEFDQGCLCLANVDNSGNGQDKIIVGSFMGYLRIFSPHPAKTGDGAQAEDLLLEVDLRDPVLQVEVGKFVSGTEMLHLAVLHSRKLCVYSVSGTLGNVEHGNQCQMKLMYEHNLQRTACNMTYGSFGGVKGRDLICIQSMDGMLMVFEQESYAFGRFLPGFLLPGPLAYSSRTDSFLTVSSCQQVESYKYQVLAFATDADKRQETEQQKLGSGKRLVVDWTLNIGEQALDICIVSFNQSASSVFVLGERNFFCLKDNGQIRFMKKLDWSPSCFLPYCSVSEGTINTLIGNHNNMLHIYQDVTLKWATQLPHIPVAVRVGCLHDLKGVIVTLSDDGHLQCSYLGTDPSLFQAPNVQSRELNYDELDVEMKELQKIIKDVNKSQGVWPMTEREDDLNVSVVVSPNFDSVSQATDVEVGTDLVPSVTVKVTLQNRVILQKAKLSVYVQPPLELTCDQFTFEFMTPDLTRTVSFSVYLKRSYTPSELEGNAVVSYSRPTDRNPDGIPRVIQCKFRLPLKLICLPGQPSKTASHKITIDTNKSPVSLLSLFPGFASQSDDDQVNVMGFHFLGGARITVLASKTSQRYRIQSEQFEDLWLITNELILRLQEYFEKQGVKDFACSFSGSIPLQEYFELIDHHFELRINGEKLEELLSERAVQFRAIQRRLLARFKDKTPAPLQHLDTLLDGTYKQVIALADAVEENQGNLFQSFTRLKSATHLVILLIALWQKLSADQVAILEAAFLPLQEDTQELGWEETVDAAISHLLKTCLSKSSKEQALNLNSQLNIPKDTSQLKKHITLLCDRLSKGGRLCLSTDAAAPQTMVMPGGCTTIPESDLEERSVEQDSTELFTNHRHLTAETPRPEVSPLQGVSE

molecular target: T1, YFP-BBS4 (human); test: co-IP

Row | Binder | binding
2 | BBS7 (protein, UniProt Q8IWZ6 1-715) MDLILNRMDYLQVGVTSQKTMKLIPASRHRATQKVVIGDHDGVVMCFGMKKGEAAAVFKTLPGPKIARLELGGVINTPQEKIFIAAASEIRGFTKRGKQFLSFETNLTESIKAMHISGSDLFLSASYIYNHYCDCKDQHYYLSGDKINDVICLPVERLSRITPVLACQDRVLRVLQGSDVMYAVEVPGPPTVLALHNGNGGDSGEDLLFGTSDGKLALIQITTSKPVRKWEIQNEKKRGGILCIDSFDIVGDGVKDLLVGRDDGMVEVYSFDNANEPVLRFDQMLSESVTSIQGGCVGKDSYDEIVVSTYSGWVTGLTTEPIHKESGPGEELKINQEMQNKISSLRNELEHLQYKVLQERENYQQSSQSSKAKSAVPSFGINDKFTLNKDDASYSLILEVQTAIDNVLIQSDVPIDLLDVDKNSAVVSFSSCDSESNDNFLLATYRCQADTTRLELKIRSIEGQYGTLQAYVTPRIQPKTCQVRQYHIKPLSLHQRTHFIDHDRPMNTLTLTGQFSFAEVHSWVVFCLPEVPEKPPAGECVTFYFQNTFLDTQLESTYRKGEGVFKSDNISTISILKDVLSKEATKRKINLNISYEINEVSVKHTLKLIHPKLEYQLLLAKKVQLIDALKELQIHEGNTNFLIPEYHCILEEADHLQEEYKKQPAHLERLYGMITDLFIDKFKFKGTNVKTKVPLLLEILDSYDQNALISFFDAA | binds
3 | BBS5 (protein, UniProt Q8N3I7 1-341) MSVLDALWEDRDVRFDLSAQQMKTRPGEVLIDCLDSIEDTKGNNGDRGRLLVTNLRILWHSLALSRVNVSVGYNCILNITTRTANSKLRGQTEALYILTKCNSTRFEFIFTNLVPGSPRLFTSVMAVHRAYETSKMYRDFKLRSALIQNKQLRLLPQEHVYDKINGVWNLSSDQGNLGTFFITNVRIVWHANMNDSFNVSIPYLQIRSIKIRDSKFGLALVIESSQQSGGYVLGFKIDPVEKLQESVKEINSLHKVYSASPIFGVDYEMEEKPQPLEALTVEQIQDDVEIDSDGHTDAFVAYFADGNKQQDREPVFSEELGLAIEKLKDGFTLQGLWEVMS | binds

Second part, the binder after the results:

Row | binding | Binder
4 | binds | BBS2 (protein, UniProt Q9BXC9 1-721) MLLPVFTLKLRHKISPRMVAIGRYDGTHPCLAAATQTGKVFIHNPHTRNQHVSASRVFQSPLESDVSLLSINQAVSCLTAGVLNPELGYDALLVGTQTNLLAYDVYNNSDLFYREVADGANAIVLGTLGDISSPLAIIGGNCALQGFNHEGSDLFWTVTGDNVNSLALCDFDGDGKKELLVGSEDFDIRVFKEDEIVAEMTETEIVTSLCPMYGSRFGYALSNGTVGVYDKTSRYWRIKSKNHAMSIHAFDLNSDGVNELITGWSNGKVDARSDRTGEVIFKDNFSSAIAGVVEGDYRMDGHIQLICCSVDGEIRGYLPGTAEMRGNLMDTSAEQDLIRELSQKKQNLLLELRNYEENAKAELASPLNEADGHRGIIPANTRLHTTLSVSLGNETQTAHTELRISTSNDTIIRAVLIFAEGIFTGESHVVHPSIHNLSSSICIPIVPPKDVPVDLHLKAFVGYRSSTQFHVFESTRQLPRFSMYALTSLDPASEPISYVNFTIAERAQRVVVWLGQNFLLPEDTHIQNAPFQVCFTSLRNGGHLHIKIKLSGEITINTDDIDLAGDIIQSMASFFAIEDLQVEADFPVYFEELRKVLVKVDEYHSVHQKLSADMADHSNLIRSLLVGAEDARLMRDMKTMKSRYMELYDLNRDLLNGYKIRCNNHTELLGNLKAVNQAIQRAGRLRVGKPKNQVITACRDAIRSNNINTLFKIMRVGTASS
5 | binds | BBS8 (protein, UniProt Q8TAM2 1-541) MSSEMEPLLLAWSYFRRRKFQLCADLCTQMLEKSPYDQEPDPELPVHQAAWILKARALTEMVYIDEIDVDQEGIAEMMLDENAIAQVPRPGTSLKLPGTNQTGGPSQAVRPITQAGRPITGFLRPSTQSGRPGTMEQAIRTPRTAYTARPITSSSGRFVRLGTASMLTSPDGPFINLSRLNLTKYSQKPKLAKALFEYIFHHENDVKTIHLEDVVLHLGIYPFLLRNKNHIEKNALDLAALSTEHSQYKDWWWKVQIGKCYYRLGMYREAEKQFKSALKQQEMVDTFLYLAKVYVSLDQPVTALNLFKQGLDKFPGEVTLLCGIARIYEEMNNMSSAAEYYKEVLKQDNTHVEAIACIGSNHFYSDQPEIALRFYRRLLQMGIYNGQLFNNLGLCCFYAQQYDMTLTSFERALSLAENEEEAADVWYNLGHVAVGIGDTNLAHQCFRLALVNNNNHAEAYNNLAVLEMRKGHVEQARALLQTASSLAPHMYEPHFNFATISDKIGDLQRSYVAAQKSEAAFPDHVDTQHLIKQLRQHFAML
6 | binds | BBS9 (protein, UniProt Q3SYG4 1-887) MSLFKARDWWSTILGDKEEFDQGCLCLANVDNSGNGQDKIIVGSFMGYLRIFSPHPAKTGDGAQAEDLLLEVDLRDPVLQVEVGKFVSGTEMLHLAVLHSRKLCVYSVSGTLGNVEHGNQCQMKLMYEHNLQRTACNMTYGSFGGVKGRDLICIQSMDGMLMVFEQESYAFGRFLPGFLLPGPLAYSSRTDSFLTVSSCQQVESYKYQVLAFATDADKRQETEQQKLGSGKRLVVDWTLNIGEQALDICIVSFNQSASSVFVLGERNFFCLKDNGQIRFMKKLDWSPSCFLPYCSVSEGTINTLIGNHNNMLHIYQDVTLKWATQLPHIPVAVRVGCLHDLKGVIVTLSDDGHLQCSYLGTDPSLFQAPNVQSRELNYDELDVEMKELQKIIKDVNKSQGVWPMTEREDDLNVSVVVSPNFDSVSQATDVEVGTDLVPSVTVKVTLQNRVILQKAKLSVYVQPPLELTCDQFTFEFMTPDLTRTVSFSVYLKRSYTPSELEGNAVVSYSRPTDRNPDGIPRVIQCKFRLPLKLICLPGQPSKTASHKITIDTNKSPVSLLSLFPGFASQSDDDQVNVMGFHFLGGARITVLASKTSQRYRIQSEQFEDLWLITNELILRLQEYFEKQGVKDFACSFSGSIPLQEYFELIDHHFELRINGEKLEELLSERAVQFRAIQRRLLARFKDKTPAPLQHLDTLLDGTYKQVIALADAVEENQGNLFQSFTRLKSATHLVILLIALWQKLSADQVAILEAAFLPLQEDTQELGWEETVDAAISHLLKTCLSKSSKEQALNLNSQLNIPKDTSQLKKHITLLCDRLSKGGRLCLSTDAAAPQTMVMPGGCTTIPESDLEERSVEQDSTELFTNHRHLTAETPRPEVSPLQGVSE
